The test deals with SIDT2-mut-GFP (SIDT2 with tyrosine 650 replaced by alanine, CRAC-2 motif disrupted) (human) (UniProt Q8NBJ9). Kind of test: co-IP; HEK293 cell extracts of co-transfected cells; SIDT2-GFP immunoprecipitated with an anti-GFP antibody; SIDT2 and ApoA1 detected by Western blot. On the technique in general: A western blot detects proteins with antibodies after separation by electrophoresis.

Protein sequences, listed by entry. Tags and fused reporters are not part of them. Lines headed by an entry give the natural chain unless they say otherwise; changes in a name come on top. Residues count along the entry.
UniProt Q8NBJ9: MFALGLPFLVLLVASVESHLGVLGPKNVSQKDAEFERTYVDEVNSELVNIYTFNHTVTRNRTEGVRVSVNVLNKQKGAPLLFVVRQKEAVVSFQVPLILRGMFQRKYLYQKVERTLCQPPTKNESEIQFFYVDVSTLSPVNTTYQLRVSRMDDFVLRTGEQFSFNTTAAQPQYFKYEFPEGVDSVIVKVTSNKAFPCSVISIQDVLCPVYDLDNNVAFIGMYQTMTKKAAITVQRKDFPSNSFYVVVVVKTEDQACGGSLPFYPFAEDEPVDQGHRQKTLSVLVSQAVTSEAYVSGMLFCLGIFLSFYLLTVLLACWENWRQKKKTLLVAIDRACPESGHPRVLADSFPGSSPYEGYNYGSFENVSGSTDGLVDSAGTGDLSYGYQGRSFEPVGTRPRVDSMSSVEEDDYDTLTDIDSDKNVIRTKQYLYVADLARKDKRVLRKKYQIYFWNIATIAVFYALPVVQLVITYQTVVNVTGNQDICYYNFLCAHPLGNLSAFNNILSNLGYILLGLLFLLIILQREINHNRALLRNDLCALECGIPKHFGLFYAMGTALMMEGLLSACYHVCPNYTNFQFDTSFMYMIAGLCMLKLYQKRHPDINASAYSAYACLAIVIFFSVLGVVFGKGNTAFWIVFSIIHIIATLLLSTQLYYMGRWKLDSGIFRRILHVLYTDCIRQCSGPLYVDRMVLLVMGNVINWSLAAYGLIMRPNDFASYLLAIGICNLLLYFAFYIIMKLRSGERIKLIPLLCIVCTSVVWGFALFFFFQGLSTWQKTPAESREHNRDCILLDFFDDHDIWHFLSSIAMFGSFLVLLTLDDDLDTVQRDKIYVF
UniProt P02647, residues 19-267: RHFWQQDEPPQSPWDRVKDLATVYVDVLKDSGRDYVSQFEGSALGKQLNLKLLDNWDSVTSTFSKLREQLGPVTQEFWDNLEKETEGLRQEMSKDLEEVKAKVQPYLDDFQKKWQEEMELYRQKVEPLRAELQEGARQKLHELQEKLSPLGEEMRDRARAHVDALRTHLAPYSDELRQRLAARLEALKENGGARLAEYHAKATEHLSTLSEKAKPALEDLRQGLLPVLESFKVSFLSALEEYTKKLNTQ

From paper PMC10571540 come the findings set out here.

Results are given in words; binding and its absence hold for the method and conditions named. Binding seen in cells or lysates may run through a third protein.

For “ApoA1 (expressed in HEK293 cells for co-immunoprecipitation) (from UniProt P02647 19-267)”, the binding entry is given as “no binding”.
